Molecules are shown by their SMILES. The list shows a part of the results. Further columns of the screen follow, without active or inactive calls. Compounds called inactive in the main read-out are mostly missing here. The note in brackets gives the kind of curve behind each potency; many fits are weak.

Here are results for 41 compounds from PubChem BioAssay AID2685 (National Center for Advancing Translational Sciences (NCATS), 2010).

The test in a line: qHTS Assay for Lipid Storage Modulators in Drosophila S3 Cells.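 As to cell number change: cells counted by Cell Tracker Red CMTPX staining in the red channel.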 The conditions noted are these: BODIPY lipid droplet fluorescence, 18-24 h; for cell number change: measured here: cell count max response, cells fed with added oleic acid. The essentials:
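Laser-scanning cytometry quantifies lipid droplet accumulation (500–530 nm total intensity; droplet/cell object ratio) in oleic acid-fed (400 uM added) Drosophila S3 cells treated with a concentration series. 20 uM Triacsin C defined 100% inhibition.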

Where [1] appears, read: measured here: lipid fluorescence (Fed channel) AC50, cells fed with added oleic acid.
[2] abbreviates: measured here: cell number channel AC50, cells fed with added oleic acid.

As for `O=C(/C=C/c1cccs1)c1ccc(N2CCOCC2)cc1`, the cell number change was 31.2%.

A word on the AC50: it is the midpoint of the concentration-response curve, whichever way the signal moves. Read a low AC50 as greater potency. With `Cc1ccc(-c2nn3c(C)nnc3s2)cc1NC(=O)c1ccc(Br)o1`, the concentration at half-maximal activity (AC50) under setting [1] was 0.0058 µM [rising, full curve, poor fit].

As to `C=CCn1c(=O)/c(=C/c2ccc(C)o2)s/c1=C(/C#N)C(=O)c1ccccc1`, the cell number change was -20.4%.

Take `O=C(NCCc1ccccc1)c1noc2c1CCCCC2`: the cell number change is 6.31%.

Take `CC(=O)c1cccc(S(=O)(=O)NCCC(=O)O)c1`: the cell number change is -34.3%. Moreover, under setting [2], the AC50 was 5.17 µM [falling, single point]. Under setting [1], the half-maximal activity concentration (AC50) is 4.11 µM [falling, single point].

For `CC(=O)c1ccc(NC(=S)N(Cc2ccccc2)C(C)C2CC2)cc1` (configuration not stated), the cell number change was -22.7%.

`COc1ccc(OCCCC(=O)N2CCN(S(=O)(=O)c3cccc(F)c3)CC2)cc1`: the cell number change came out at 65.5%. Moreover, the AC50 under setting [2] is 29.1 µM [rising, single point].

As to `CCOC(=O)/C=C1\NC(=O)CS1`, the cell number change was 7.4%. Also, under setting [1], the half-maximal activity concentration (AC50) was 6.51 µM [falling, single point].

On to `COc1ccc2c(CC(=O)OCC(=O)Nc3ccccc3[N+](=O)[O-])coc2c1`, for which the AC50 is 0.0116 µM [falling, full curve, poor fit] under setting [2] and 6.51 µM [rising, single point] under setting [1].

Consider `COc1ccc(-c2nc(CS(=O)CC(=O)NC3CCC(C)CC3)c(C)o2)cc1OC` (configuration not stated), for which the cell number change was -6.08%.

Take `CC1CCC(NC(=O)c2cc3c(s2)CCCC3)CC1` (configuration not stated): the cell number change was determined as 92%. The half-maximal activity concentration (AC50) under setting [2] is 20.6 µM [rising, partial curve].

As to `CN(CCCNC(=O)c1cccn2c(=O)c3ccccc3nc12)Cc1ccccc1`, the cell number change was 5.29%. Also, the AC50 under setting [2] is 0.058 µM [rising, full curve, poor fit]. Besides, the AC50 under setting [1] is 0.092 µM [rising, full curve].

In the case of `O=c1[nH]c(CN2CCN(Cc3ccc4c(c3)OCO4)CC2)nc2sc3c(c12)CCC3`, the cell number change is -1.72%. Also, the concentration at half-maximal activity (AC50) under setting [1] was 3.26 µM [falling, single point].

Consider `CC1S/C(=C(\C#N)C(N)=O)N(c2ccc(F)cc2)C1=O` (configuration not stated), for which the cell number change was -1.09%. Also, under setting [1], the concentration at half-maximal activity (AC50) was 0.0517 µM [falling, full curve, poor fit].

On to `N#CCCC(CCC#N)C1=NCCc2ccccc21`, for which the cell number change was -12.6%. The half-maximal activity concentration (AC50) under setting [2] is 0.0058 µM [falling, full curve, poor fit]. Besides, the AC50 under setting [1] was 0.103 µM [falling, full curve, poor fit].

With `CC(C)C(C)NC(=O)CN1C(=O)NC2(CCc3ccccc32)C1=O` (configuration not stated), the cell number change turned out to be 35.7%.

Turning to `COCc1cc(C)nc(N/N=C/c2ccc(-c3ccc(C(=O)O)c(Cl)c3)o2)c1C#N`, the cell number change was -25.9%. Also, the AC50 under setting [1] is 25.9 µM [falling, partial curve].

Take `CCOc1ccc2nc(NC(=O)CCC(=O)c3cccs3)sc2c1`: the cell number change turned out to be 18.3%.

On to `COc1ccccc1CNC(=O)C1(NC(=O)Nc2ccc(C)cc2)CCCCC1`, for which the cell number change is -13%. Under setting [1], the AC50 is 0.103 µM [falling, full curve].

As to `CCc1ccc(CN2CCC(C(=O)Nc3ccc(-n4nc(C)cc4C)cc3)CC2)o1`, the AC50 under setting [1] was 18.4 µM [rising, partial curve].

With `CCCC(c1nnnn1CS(=O)(=O)c1ccc(C)cc1)N1CCN(CC)CC1` (configuration not stated), the cell number change is 9.55%.

For the compound `O=C1C2C3C=CC(C4CC34)C2C(=O)N1/N=C/c1cccs1` (configuration not stated), the cell number change was found to be 2.09%. The AC50 under setting [1] was 1.46 µM [falling, partial curve].

Take `N#Cc1c(SCC(=O)Nc2cccc(C(F)(F)F)c2)sc2c(O)cc(=O)[nH]c12`: the cell number change turned out to be 1.35%. Also, the AC50 under setting [1] was 29.1 µM [rising, single point].

As for `CCOC(=O)N1CCN(S(=O)(=O)c2ccc(C(=O)NNc3nc4ccc(Cl)cc4s3)cc2)CC1`, under setting [1], the half-maximal activity concentration (AC50) is 32.6 µM [falling, single point].

Regarding `O=C(N/N=C/c1cccnc1)c1ccc(CN2c3cccc4cccc(c34)S2(=O)=O)cc1`, the cell number change is 7.21%. Besides, under setting [2], the AC50 is 2.31 µM [rising, partial curve]. Besides, the AC50 under setting [1] is 2.91 µM [rising, partial curve].

Take `COc1cccc(CNS(=O)(=O)c2cc(CN3C(=O)c4cccnc4C3=O)ccc2OC)c1`: the cell number change is 17.9%. The AC50 under setting [1] was 23.1 µM [falling, single point].

As for `Cn1c(=O)c2c(-c3ccccc3)n(-n3cnnc3)cc2n(C)c1=O`, the cell number change is -24.6%. The AC50 under setting [1] was 29.1 µM [falling, single point].

Consider `O=C1NC(=O)/C(=C\c2ccc(O)cc2O)S1`, for which the cell number change was -17.4%. The concentration at half-maximal activity (AC50) under setting [1] was 6.51 µM [falling, single point].

As for `O=S(=O)(c1ccc(SCCO)nc1)N1CCCC1`, the cell number change is -10.8%. In addition, the half-maximal activity concentration (AC50) under setting [1] was 0.116 µM [falling, full curve, poor fit].

As for `O=C1c2cccc3cccc(c23)C(=O)N1c1nncs1`, the cell number change stood at 8.02%. Further, under setting [1], the AC50 is 3.26 µM [falling, single point].

Take `CC1(c2cccc(Br)c2)NC(=O)N(CC(=O)Nc2ccc(S(N)(=O)=O)cc2)C1=O` (configuration not stated): the cell number change was 9.01%. The AC50 under setting [1] was 0.651 µM [rising, full curve].

On to `CC(C)(C)OCC(O)CN1CCN(C(=O)c2ccccc2)CC1` (configuration not stated), for which the cell number change was -36.9%. The AC50 under setting [2] is 32.6 µM [falling, single point].

Take `CN1Cc2cccc3c2C(Cc2ccccc2S3)C1` (configuration not stated): the cell number change came out at 87%. Further, under setting [2], the concentration at half-maximal activity (AC50) is 29.1 µM [rising, single point].

As for `CC(C)N1C2OC(C3OC4C(O3)N(C(C)C)S(=O)(=O)N4C(C)C)OC2N(C(C)C)S1(=O)=O` (configuration not stated), the cell number change is -19.2%. Under setting [2], the AC50 is 0.0326 µM [falling, full curve, poor fit].

For the compound `O=C(COC(=O)c1cccc(S(=O)(=O)N2CCCC2)c1)Nc1ccccc1C(F)(F)F`, the cell number change is -22.5%.

With `C/C(=C\c1ccc2c(c1)OCO2)C1Nc2cccc3cccc(c23)N1`, the cell number change worked out at 18.8%.

As to `NC1=NC(c2cccc(O)c2)n2c(nc3ccccc32)N1` (configuration not stated), the cell number change was 5.57%.

On to `Cc1cc(NC(=O)/C=C/c2ccccc2Cl)n(-c2nc3ccccc3[nH]2)n1`, for which the cell number change is -13.7%. The half-maximal activity concentration (AC50) under setting [1] is 29.1 µM [falling, single point].

As for `O=C(CP(=O)(c1ccccc1)c1ccccc1)N1CCCCC1`, the cell number change was -154%. In addition, under setting [1], the concentration at half-maximal activity (AC50) was 29.1 µM [falling, single point].

`CC[C@H](C)C(N)c1cn([C@@H](CC(N)=O)C(=O)N2CCNCC2)nn1` (some centres not stated): the cell number change was -22.2%. Besides, the AC50 under setting [1] is 20.6 µM [rising, single point].

As to `CN(CCOc1ccc(-c2ccn(S(=O)(=O)c3ccc(Cl)cc3)n2)cc1)c1ccccn1`, the cell number change turned out to be 13%. Besides, under setting [1], the AC50 was 13 µM [rising, partial curve].
